Measurements as given in article PMC12719649.
No constants are given. Whether binding was seen depends on the method and setting. Some entries that bind do so weakly or less than the wild type.

Protein sequences, listed by entry. Tags and fused reporters are not part of them. Lines headed by an entry give the natural chain unless they say otherwise; changes in a name come on top. Chains listed by the source or under a name are the forms on record and can include a tag or linker. Residues count along the entry.
UniProt O60244: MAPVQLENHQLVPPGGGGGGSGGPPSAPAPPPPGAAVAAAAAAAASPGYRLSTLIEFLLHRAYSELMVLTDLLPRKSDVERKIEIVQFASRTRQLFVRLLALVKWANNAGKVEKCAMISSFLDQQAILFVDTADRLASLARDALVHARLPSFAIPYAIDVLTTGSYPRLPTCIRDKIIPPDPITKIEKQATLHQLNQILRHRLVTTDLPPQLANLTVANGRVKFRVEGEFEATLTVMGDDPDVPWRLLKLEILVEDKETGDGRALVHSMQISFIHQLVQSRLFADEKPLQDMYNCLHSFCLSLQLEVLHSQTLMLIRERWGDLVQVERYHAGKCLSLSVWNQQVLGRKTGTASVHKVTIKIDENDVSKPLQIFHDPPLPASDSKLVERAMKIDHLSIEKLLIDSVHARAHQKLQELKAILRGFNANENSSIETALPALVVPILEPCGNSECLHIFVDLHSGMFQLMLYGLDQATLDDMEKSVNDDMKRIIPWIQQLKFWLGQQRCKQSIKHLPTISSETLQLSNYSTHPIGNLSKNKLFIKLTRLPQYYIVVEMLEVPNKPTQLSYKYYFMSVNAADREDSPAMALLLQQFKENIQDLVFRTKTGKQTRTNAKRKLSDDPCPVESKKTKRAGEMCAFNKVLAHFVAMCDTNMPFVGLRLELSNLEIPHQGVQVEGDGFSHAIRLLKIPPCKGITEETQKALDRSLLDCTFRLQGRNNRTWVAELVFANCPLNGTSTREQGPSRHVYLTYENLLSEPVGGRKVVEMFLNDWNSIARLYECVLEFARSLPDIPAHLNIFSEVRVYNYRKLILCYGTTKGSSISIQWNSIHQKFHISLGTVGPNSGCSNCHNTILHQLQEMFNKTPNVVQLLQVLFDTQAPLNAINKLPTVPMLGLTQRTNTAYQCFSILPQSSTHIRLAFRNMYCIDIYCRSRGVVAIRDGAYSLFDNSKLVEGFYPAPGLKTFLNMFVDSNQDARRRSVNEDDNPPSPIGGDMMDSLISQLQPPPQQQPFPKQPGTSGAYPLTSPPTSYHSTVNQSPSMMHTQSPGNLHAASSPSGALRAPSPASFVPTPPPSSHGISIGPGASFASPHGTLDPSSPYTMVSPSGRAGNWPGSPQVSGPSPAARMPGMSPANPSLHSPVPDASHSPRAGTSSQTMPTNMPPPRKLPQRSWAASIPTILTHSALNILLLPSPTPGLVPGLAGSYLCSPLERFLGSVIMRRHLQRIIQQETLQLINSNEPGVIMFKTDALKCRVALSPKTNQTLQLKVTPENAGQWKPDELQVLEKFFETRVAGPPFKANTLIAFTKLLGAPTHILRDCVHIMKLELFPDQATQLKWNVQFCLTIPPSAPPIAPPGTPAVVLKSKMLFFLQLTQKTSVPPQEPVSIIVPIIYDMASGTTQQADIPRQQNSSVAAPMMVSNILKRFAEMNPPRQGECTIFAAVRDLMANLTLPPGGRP
f:MED14-NTD (1-760 aa), FLAG-tagged N-terminal half of MED14: residues 1-760 of O60244
f:MED14-CTD (754-1455 aa), FLAG-tagged C-terminal half of MED14: residues 754-1454 of O60244
UniProt Q9NVC6: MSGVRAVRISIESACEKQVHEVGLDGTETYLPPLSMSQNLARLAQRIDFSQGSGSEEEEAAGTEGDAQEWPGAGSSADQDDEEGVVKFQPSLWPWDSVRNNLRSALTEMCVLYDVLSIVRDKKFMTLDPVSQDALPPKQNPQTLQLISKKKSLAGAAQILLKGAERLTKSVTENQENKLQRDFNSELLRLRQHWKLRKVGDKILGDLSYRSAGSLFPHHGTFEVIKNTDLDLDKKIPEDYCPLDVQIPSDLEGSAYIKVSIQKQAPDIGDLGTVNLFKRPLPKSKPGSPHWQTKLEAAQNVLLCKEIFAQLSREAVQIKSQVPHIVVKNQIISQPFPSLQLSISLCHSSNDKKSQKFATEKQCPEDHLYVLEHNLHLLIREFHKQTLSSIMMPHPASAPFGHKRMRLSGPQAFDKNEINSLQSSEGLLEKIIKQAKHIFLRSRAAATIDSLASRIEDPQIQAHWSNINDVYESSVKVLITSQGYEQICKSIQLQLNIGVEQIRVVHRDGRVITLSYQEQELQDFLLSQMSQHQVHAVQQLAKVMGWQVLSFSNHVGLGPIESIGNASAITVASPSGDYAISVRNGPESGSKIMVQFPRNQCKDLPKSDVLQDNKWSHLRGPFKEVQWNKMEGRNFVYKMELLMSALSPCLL

Tests used:
Assay in all cases: co-expression and co-purification (anti-FLAG M2, anti-HA, Superose 6); subunits co-expressed in insect cells; purified through M2 beads (f:MED14 derivative), HA beads (HA:MED7) and Superose 6; SDS-PAGE
[1] = biological target: f:MED14 (1-1455 aa), full-length FLAG-tagged MED14 (human) (UniProt O60244)
[2] = biological target: f:MED14-CTD (754-1455 aa), FLAG-tagged C-terminal half of MED14 (human) (UniProt O60244)
[3] = biological target: f:MED14-NTD (1-760 aa), FLAG-tagged N-terminal half of MED14 (human) (UniProt O60244)

Measured: binding

H+M+MED26, head + middle modules with MED26 (from UniProt Q9NVC6 1-651; Q96G25 1-268; A0JLT2 1-244; O75586 1-246; Q15528 1-200; Q9P086 1-117; Q96HR3 1-178; Q9H944 1-212; Q9BUE0 1-208; O43513 1-233; Q9Y3C7 1-131; Q9BTT4 1-135; Q9NPJ6 1-270; Q13503 1-144; O95402 1-600) (complex)
binds: all assays above
